The values below come from publication PMC10716049.

Sequences of proteins named here, by UniProt entry; tags and fusion partners are left off.
UniProt P10275: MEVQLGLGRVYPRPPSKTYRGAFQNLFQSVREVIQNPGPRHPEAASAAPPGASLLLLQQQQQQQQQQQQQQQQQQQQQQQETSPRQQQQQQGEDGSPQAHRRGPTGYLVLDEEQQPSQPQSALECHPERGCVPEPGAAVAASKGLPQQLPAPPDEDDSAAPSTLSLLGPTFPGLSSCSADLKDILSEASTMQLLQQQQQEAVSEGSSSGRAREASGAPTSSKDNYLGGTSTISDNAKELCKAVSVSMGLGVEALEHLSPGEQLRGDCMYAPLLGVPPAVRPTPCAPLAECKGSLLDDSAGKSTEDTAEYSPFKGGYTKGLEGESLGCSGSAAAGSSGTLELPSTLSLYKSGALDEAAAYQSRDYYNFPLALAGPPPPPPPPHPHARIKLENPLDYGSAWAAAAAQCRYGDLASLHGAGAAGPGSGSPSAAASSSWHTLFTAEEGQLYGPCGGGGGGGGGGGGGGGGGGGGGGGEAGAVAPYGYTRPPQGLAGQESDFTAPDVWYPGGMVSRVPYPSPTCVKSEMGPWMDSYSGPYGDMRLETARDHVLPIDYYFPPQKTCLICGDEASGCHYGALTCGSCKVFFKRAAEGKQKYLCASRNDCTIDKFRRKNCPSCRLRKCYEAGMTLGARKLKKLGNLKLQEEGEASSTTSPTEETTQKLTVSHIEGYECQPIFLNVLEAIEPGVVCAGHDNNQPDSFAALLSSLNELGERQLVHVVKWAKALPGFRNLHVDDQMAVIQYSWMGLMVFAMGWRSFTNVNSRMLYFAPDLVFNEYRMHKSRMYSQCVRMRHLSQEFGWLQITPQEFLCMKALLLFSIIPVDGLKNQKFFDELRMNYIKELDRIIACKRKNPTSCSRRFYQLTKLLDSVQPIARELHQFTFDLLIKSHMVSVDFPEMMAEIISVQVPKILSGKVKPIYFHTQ
UniProt P49790: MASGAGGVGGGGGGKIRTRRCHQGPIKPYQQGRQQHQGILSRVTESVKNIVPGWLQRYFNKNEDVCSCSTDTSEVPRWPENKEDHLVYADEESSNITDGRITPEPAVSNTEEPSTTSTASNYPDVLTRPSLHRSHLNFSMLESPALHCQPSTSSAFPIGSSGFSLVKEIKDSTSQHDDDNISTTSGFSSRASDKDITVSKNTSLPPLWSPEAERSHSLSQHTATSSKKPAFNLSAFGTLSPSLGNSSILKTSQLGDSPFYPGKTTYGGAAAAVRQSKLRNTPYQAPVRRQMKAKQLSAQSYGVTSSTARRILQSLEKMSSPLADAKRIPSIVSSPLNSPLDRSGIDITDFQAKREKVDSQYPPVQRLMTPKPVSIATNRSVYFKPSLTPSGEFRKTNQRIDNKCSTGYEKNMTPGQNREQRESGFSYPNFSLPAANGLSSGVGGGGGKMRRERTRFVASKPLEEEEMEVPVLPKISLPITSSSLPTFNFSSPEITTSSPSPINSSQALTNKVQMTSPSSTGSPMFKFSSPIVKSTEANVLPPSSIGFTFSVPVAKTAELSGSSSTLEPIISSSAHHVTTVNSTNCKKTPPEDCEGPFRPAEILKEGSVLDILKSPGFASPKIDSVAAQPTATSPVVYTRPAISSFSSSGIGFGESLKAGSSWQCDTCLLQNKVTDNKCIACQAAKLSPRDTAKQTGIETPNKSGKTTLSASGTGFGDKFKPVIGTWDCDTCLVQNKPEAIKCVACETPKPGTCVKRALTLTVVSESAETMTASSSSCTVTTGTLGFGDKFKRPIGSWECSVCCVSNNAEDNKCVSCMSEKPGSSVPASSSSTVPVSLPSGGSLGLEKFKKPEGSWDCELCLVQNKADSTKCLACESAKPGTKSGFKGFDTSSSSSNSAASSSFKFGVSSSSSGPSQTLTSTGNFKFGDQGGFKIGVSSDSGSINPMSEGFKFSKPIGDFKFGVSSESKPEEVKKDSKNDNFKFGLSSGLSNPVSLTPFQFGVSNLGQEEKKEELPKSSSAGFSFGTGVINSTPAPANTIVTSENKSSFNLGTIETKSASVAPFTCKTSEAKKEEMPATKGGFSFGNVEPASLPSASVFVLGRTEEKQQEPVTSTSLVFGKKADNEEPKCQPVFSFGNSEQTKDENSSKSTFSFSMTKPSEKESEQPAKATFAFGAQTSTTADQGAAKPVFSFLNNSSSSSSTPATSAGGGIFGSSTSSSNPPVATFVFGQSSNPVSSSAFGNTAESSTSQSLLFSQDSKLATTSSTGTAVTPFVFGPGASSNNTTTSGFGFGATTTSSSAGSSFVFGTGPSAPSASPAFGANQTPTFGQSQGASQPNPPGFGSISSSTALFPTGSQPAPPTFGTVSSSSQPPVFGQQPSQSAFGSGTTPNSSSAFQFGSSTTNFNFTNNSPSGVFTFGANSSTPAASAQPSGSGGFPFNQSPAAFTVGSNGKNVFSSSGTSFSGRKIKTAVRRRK

Results are given in words; binding and its absence hold for the method and conditions named. In cells and extracts the contact can be indirect.

For this experiment, the target named is FLAG-MTID-AR-WT (full-length wild-type androgen receptor fused to FLAG-tagged Mini-TurboID) (human) (UniProt P10275). Description: proximity ligation; Duolink PLA in fixed DHT-treated PC3 cells expressing FLAG-MTID-AR WT or 22YtoS; antibodies to AR and to MED1, ARID1A or NUP153; 50 uM biotin and 1 nM DHT for 2 h.

In the case of NUP153 (from UniProt P49790 1-1475), the binding entry is recorded as “no binding”.
